This is one part of the list.
Compound: CC1Cc2ccccc2N1C(=O)C1CCCN(C1)C(=O)CCl (mixture of isomers) [TRIM25 ligand 11 (diastereomer mixture)]
Assay: probe-labelled cysteine peptide fold change vs DMSO (competition) (log2 fold change); higher = less target engagement (more negative = stronger competition)
Details: THP-1, incubation time: 4 h
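Note: competitive chemoproteomic profiling in live THP-1 cells with an iodoacetamide desthiobiotin (IA-DTB) probe, comparing probe-labelled peptide intensities in compound-treated cells against DMSO-treated controls.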

OS9_Q13438_181_CDLNGRPR (UniProt Q13438)
probe-labelled cysteine peptide fold change (10 µM): 0.0235
probe-labelled cysteine peptide fold change (50 µM): 0.139

PAICS_P22234_81_KCGETAFIAPQCEMIPIEWVCR (UniProt P22234)
probe-labelled cysteine peptide fold change (10 µM): -0.174
probe-labelled cysteine peptide fold change (50 µM): -0.0778

OSGEPL1_Q9H4B0_295_GQILSSAADIAATVQHTMACHLVK (UniProt Q9H4B0)
probe-labelled cysteine peptide fold change (10 µM): -0.0724
probe-labelled cysteine peptide fold change (50 µM): -0.383

OSBPL1A_Q9BXW6_412_ETCVALTDCLNLFTK (UniProt Q9BXW6)
probe-labelled cysteine peptide fold change (10 µM): -0.00619
probe-labelled cysteine peptide fold change (50 µM): 0.161

OGT_O15294_417_EMQDVQGALQCYTR (UniProt O15294)
probe-labelled cysteine peptide fold change (10 µM): -0.0702
probe-labelled cysteine peptide fold change (50 µM): 0.0109

OGT_O15294_44_HCMQLWR (UniProt O15294)
probe-labelled cysteine peptide fold change (10 µM): 0.0666
probe-labelled cysteine peptide fold change (50 µM): 0.114

P3H1_Q32P28_645_TVTAEVQPQCGR (UniProt Q32P28)
probe-labelled cysteine peptide fold change (10 µM): -0.00504
probe-labelled cysteine peptide fold change (50 µM): 0.0522

OSBPL1A_Q9BXW6_297_STDSCLFFIK (UniProt Q9BXW6)
probe-labelled cysteine peptide fold change (10 µM): 0.0458
probe-labelled cysteine peptide fold change (50 µM): 0.151

PARP14_Q460N5_849_AAGPELQADCDQIVKR (UniProt Q460N5)
probe-labelled cysteine peptide fold change (10 µM): -0.204
probe-labelled cysteine peptide fold change (50 µM): -0.166

PANK4_Q9NVE7_699_LLLVQTGSSSPCLDLSR (UniProt Q9NVE7)
probe-labelled cysteine peptide fold change (10 µM): 0.178
probe-labelled cysteine peptide fold change (50 µM): 0.01

OXR1_Q8N573-2_50_FEDYLREPAQGDLGCGSPPHRPPAPSSPEGPDTGQK (UniProt Q8N573)
probe-labelled cysteine peptide fold change (10 µM): 0.0482
probe-labelled cysteine peptide fold change (50 µM): -0.0597

ORC5_O43913_96_LNHLSSSEDGCSTEITCETFNDFVR (UniProt O43913)
probe-labelled cysteine peptide fold change (10 µM): 0.463
probe-labelled cysteine peptide fold change (50 µM): 0.0635

OSBPL2_Q9H1P3_266_CVLHFKPCGLFGK (UniProt Q9H1P3)
probe-labelled cysteine peptide fold change (10 µM): -0.162
probe-labelled cysteine peptide fold change (50 µM): 0.13

PADI2_Q9Y2J8_612+613_PFGPQVEEECCLEMHVR (UniProt Q9Y2J8)
probe-labelled cysteine peptide fold change (10 µM): -0.0826
probe-labelled cysteine peptide fold change (50 µM): -0.202

OSBPL3_Q9H4L5_114_CIDLDTEEHIYHLK (UniProt Q9H4L5)
probe-labelled cysteine peptide fold change (10 µM): -0.0859
probe-labelled cysteine peptide fold change (50 µM): 0.0383

PARP14_Q460N5_42_RSGGGECEVR (UniProt Q460N5)
probe-labelled cysteine peptide fold change (10 µM): -0.0352
probe-labelled cysteine peptide fold change (50 µM): -0.108

OGT_O15294_472_LKPDFPDAYCNLAHCLQIVCDWTDYDER (UniProt O15294)
probe-labelled cysteine peptide fold change (10 µM): -0.029
probe-labelled cysteine peptide fold change (50 µM): 0.0646

PAPSS2_O95340_497_STIVAIFPSPMLYAGPTEVQWHCR (UniProt O95340)
probe-labelled cysteine peptide fold change (10 µM): 0.22
probe-labelled cysteine peptide fold change (50 µM): 0.128

PAK3_O75914_424_LTDFGFCAQITPEQSK (UniProt O75914)
probe-labelled cysteine peptide fold change (10 µM): 0.146
probe-labelled cysteine peptide fold change (50 µM): 0.102

PAFAH1B3_Q15102_55_DKEPEVVFIGDSLVQLMHQCEIWR (UniProt Q15102)
probe-labelled cysteine peptide fold change (10 µM): 0.193
probe-labelled cysteine peptide fold change (50 µM): 0.141

PA2G4_Q9UQ80_296_MGVVECAK (UniProt Q9UQ80)
probe-labelled cysteine peptide fold change (10 µM): -0.114
probe-labelled cysteine peptide fold change (50 µM): -0.119

OLA1_Q9NTK5_187_KLKPEYDIMCK (UniProt Q9NTK5)
probe-labelled cysteine peptide fold change (10 µM): -0.26
probe-labelled cysteine peptide fold change (50 µM): -0.371

OSBPL1A_Q9BXW6_746_PCGLFGK (UniProt Q9BXW6)
probe-labelled cysteine peptide fold change (10 µM): 0.109
probe-labelled cysteine peptide fold change (50 µM): 0.494

OLA1_Q9NTK5_75_VPVPDERFDFLCQYHK (UniProt Q9NTK5)
probe-labelled cysteine peptide fold change (10 µM): 0.102
probe-labelled cysteine peptide fold change (50 µM): 0.153

OTUD4_Q01804_903_DCGSVSTVDEFPEAR (UniProt Q01804)
probe-labelled cysteine peptide fold change (10 µM): 0.089
probe-labelled cysteine peptide fold change (50 µM): -0.0854

PAICS_P22234_91_KCGETAFIAPQCEMIPIEWVCR (UniProt P22234)
probe-labelled cysteine peptide fold change (10 µM): -0.0785
probe-labelled cysteine peptide fold change (50 µM): -0.118

PAPOLA_P51003_677_TEEDETSEDANCLALSGHDK (UniProt P51003)
probe-labelled cysteine peptide fold change (10 µM): 0.115
probe-labelled cysteine peptide fold change (50 µM): -0.0683

ORC3_Q9UBD5_158_LISQLMDCCVDIK (UniProt Q9UBD5)
probe-labelled cysteine peptide fold change (10 µM): -0.0854
probe-labelled cysteine peptide fold change (50 µM): -0.134

PARK7_Q99497_53_DVVICPDASLEDAKK (UniProt Q99497)
probe-labelled cysteine peptide fold change (10 µM): 0.00417
probe-labelled cysteine peptide fold change (50 µM): -0.162

P4HB_P07237_397_NVFVEFYAPWCGHCK (UniProt P07237)
probe-labelled cysteine peptide fold change (10 µM): -0.0102
probe-labelled cysteine peptide fold change (50 µM): -0.376

PAPOLA_P51003_118_GADIDALCVAPR (UniProt P51003)
probe-labelled cysteine peptide fold change (10 µM): 0.0762
probe-labelled cysteine peptide fold change (50 µM): 0.0015

ORC1_Q13415_253_RLELGNLGNPQMSQQTSCASLDSPGR (UniProt Q13415)
probe-labelled cysteine peptide fold change (10 µM): -0.369
probe-labelled cysteine peptide fold change (50 µM): -0.256

PACSIN2_Q9UNF0_38+44_LCSDLMNCLHER (UniProt Q9UNF0)
probe-labelled cysteine peptide fold change (10 µM): -0.108
probe-labelled cysteine peptide fold change (50 µM): -0.191

OTUD4_Q01804_489_DEQAFPALSSSSVNQSASQSSNPCVQR (UniProt Q01804)
probe-labelled cysteine peptide fold change (10 µM): 0.28
probe-labelled cysteine peptide fold change (50 µM): -0.156

PAOX_Q6QHF9_33_LCGHSAFPHLR (UniProt Q6QHF9)
probe-labelled cysteine peptide fold change (10 µM): -0.0546
probe-labelled cysteine peptide fold change (50 µM): 0.0391

OTULIN_Q96BN8_347_VCEETSL (UniProt Q96BN8)
probe-labelled cysteine peptide fold change (10 µM): -0.0513
probe-labelled cysteine peptide fold change (50 µM): -0.127

OSGEPL1_Q9H4B0_249_NCDFSFTGLQHVTDK (UniProt Q9H4B0)
probe-labelled cysteine peptide fold change (10 µM): -0.0592
probe-labelled cysteine peptide fold change (50 µM): -0.0361

OSTF1_Q92882_185_LAFDMATNAACASLLKK (UniProt Q92882)
probe-labelled cysteine peptide fold change (10 µM): -0.181
probe-labelled cysteine peptide fold change (50 µM): -0.421

PAPOLG_Q9BWT3_604_TVSPPTVCTIPTVVGR (UniProt Q9BWT3)
probe-labelled cysteine peptide fold change (10 µM): -0.216
probe-labelled cysteine peptide fold change (50 µM): -0.238

OSBPL8_Q9BZF1_255_CWMDALELALK (UniProt Q9BZF1)
probe-labelled cysteine peptide fold change (10 µM): 0.0868
probe-labelled cysteine peptide fold change (50 µM): 0.204

PANK4_Q9NVE7_513_EHCLNEFNFPDPYSK (UniProt Q9NVE7)
probe-labelled cysteine peptide fold change (10 µM): -0.444
probe-labelled cysteine peptide fold change (50 µM): -0.129

— the supplement of paper PMC12067093, “Discovery and optimisation of a covalent ligand for TRIM25 and its application to targeted protein ubiquitination” (Chemical Science, 2025)
